The supplement of paper PMC10849652
This is one part of the list.

Chains of the proteins cited; added tags and fusions are not shown. Lines headed by an entry give the natural chain unless they say otherwise; changes in a name come on top.
UniProt Q3B726, whole entry, looked up: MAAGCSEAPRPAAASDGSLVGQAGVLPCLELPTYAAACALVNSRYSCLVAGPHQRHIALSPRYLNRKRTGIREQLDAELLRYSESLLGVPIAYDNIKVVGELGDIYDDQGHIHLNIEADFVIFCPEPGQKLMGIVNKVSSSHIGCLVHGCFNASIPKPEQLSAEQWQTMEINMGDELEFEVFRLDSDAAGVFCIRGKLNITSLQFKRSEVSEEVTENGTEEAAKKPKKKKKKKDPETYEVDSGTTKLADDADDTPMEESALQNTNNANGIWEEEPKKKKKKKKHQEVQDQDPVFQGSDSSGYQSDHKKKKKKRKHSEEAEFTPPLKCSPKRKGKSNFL
UniProt Q9BTX7: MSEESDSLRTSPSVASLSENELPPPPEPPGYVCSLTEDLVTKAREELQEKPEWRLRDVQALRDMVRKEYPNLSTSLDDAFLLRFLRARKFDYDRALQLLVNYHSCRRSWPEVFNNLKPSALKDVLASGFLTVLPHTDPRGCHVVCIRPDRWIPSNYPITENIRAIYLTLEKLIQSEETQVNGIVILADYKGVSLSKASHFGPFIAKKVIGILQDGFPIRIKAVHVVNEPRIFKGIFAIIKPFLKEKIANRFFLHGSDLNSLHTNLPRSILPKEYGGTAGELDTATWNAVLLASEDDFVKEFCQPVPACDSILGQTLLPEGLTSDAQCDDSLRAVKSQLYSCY
UniProt P51668: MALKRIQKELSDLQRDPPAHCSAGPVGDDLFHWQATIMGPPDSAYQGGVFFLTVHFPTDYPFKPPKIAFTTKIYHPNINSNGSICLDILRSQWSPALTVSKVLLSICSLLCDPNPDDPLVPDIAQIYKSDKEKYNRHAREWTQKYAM
UniProt Q96CW5, whole entry, looked up: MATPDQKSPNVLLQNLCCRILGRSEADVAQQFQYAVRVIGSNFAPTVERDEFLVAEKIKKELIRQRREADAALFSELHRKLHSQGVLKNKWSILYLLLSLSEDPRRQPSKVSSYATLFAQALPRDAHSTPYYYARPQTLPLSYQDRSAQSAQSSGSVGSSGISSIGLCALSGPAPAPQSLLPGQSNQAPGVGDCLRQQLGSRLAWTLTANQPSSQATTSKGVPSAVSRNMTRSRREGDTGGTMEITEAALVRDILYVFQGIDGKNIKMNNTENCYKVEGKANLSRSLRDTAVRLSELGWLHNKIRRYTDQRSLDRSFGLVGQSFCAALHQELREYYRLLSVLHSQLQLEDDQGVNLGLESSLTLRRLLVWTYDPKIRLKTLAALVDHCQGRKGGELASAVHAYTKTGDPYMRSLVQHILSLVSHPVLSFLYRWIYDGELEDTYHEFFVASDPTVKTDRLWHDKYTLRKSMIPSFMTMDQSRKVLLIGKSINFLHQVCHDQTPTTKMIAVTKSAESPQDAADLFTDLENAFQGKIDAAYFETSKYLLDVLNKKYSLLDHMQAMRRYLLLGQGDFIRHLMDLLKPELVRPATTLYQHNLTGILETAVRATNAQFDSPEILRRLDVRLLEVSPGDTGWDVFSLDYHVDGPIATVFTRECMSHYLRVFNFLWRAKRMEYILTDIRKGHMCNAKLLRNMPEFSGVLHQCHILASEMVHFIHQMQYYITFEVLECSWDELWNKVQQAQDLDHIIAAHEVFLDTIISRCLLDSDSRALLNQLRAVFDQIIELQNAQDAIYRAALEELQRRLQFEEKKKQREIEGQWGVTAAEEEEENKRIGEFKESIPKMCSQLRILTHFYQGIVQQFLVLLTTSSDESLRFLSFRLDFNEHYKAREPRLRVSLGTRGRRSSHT
UniProt Q9H892: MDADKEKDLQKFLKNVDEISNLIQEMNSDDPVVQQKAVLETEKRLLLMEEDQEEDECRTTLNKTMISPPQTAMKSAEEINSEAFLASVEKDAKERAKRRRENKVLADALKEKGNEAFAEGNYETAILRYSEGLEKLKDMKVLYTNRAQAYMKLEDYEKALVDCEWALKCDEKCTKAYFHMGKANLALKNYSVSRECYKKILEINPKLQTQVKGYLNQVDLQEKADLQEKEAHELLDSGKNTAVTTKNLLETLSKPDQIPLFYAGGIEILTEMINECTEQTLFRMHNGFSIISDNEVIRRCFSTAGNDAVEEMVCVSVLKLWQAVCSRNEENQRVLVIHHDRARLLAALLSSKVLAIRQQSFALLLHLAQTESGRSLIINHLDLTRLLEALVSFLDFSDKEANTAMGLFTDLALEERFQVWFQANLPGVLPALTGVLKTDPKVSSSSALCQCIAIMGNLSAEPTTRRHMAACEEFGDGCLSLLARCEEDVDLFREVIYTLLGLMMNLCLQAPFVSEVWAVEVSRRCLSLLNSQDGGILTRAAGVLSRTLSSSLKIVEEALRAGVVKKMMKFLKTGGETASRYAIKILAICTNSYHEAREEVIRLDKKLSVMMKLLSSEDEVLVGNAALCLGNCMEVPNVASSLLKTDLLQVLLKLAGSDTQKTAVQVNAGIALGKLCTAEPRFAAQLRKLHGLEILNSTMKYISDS
UniProt P04350, whole entry, looked up: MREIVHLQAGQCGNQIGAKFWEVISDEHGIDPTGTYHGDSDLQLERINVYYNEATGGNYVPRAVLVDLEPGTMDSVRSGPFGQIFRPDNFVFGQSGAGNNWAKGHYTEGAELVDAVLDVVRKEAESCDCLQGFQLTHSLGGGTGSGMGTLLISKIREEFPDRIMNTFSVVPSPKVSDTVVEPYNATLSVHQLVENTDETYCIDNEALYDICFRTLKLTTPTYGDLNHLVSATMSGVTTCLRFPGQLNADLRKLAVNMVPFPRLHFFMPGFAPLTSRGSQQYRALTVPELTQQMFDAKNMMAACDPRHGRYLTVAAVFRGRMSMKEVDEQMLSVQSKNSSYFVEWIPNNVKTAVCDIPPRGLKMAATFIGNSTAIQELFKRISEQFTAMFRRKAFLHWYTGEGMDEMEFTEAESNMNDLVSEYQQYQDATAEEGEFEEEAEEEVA
UniProt P60604: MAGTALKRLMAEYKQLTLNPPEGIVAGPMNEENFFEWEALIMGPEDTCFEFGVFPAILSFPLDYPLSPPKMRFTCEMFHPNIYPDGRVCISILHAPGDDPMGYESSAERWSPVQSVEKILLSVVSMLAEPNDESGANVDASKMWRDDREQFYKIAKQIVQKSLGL
UniProt A2RUC4: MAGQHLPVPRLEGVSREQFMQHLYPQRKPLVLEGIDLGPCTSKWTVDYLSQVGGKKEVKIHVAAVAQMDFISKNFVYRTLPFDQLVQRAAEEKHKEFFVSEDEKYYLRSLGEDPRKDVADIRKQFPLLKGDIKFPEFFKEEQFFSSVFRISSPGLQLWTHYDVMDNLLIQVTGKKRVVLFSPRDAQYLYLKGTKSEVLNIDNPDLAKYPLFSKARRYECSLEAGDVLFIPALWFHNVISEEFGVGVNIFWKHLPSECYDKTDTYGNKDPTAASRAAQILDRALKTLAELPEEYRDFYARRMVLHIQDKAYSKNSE
UniProt O14817: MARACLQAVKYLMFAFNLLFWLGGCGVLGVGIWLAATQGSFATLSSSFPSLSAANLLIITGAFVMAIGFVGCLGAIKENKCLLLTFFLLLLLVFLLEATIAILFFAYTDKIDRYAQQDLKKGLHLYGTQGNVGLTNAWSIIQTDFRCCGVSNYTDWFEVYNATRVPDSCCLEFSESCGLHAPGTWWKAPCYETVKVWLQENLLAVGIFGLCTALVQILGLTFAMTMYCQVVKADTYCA
UniProt Q12999: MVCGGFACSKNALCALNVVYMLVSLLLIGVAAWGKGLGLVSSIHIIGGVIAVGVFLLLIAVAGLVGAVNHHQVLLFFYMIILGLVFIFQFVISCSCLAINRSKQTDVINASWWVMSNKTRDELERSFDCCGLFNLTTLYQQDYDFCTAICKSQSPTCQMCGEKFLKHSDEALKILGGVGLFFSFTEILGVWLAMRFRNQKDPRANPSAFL
UniProt Q8NBP0: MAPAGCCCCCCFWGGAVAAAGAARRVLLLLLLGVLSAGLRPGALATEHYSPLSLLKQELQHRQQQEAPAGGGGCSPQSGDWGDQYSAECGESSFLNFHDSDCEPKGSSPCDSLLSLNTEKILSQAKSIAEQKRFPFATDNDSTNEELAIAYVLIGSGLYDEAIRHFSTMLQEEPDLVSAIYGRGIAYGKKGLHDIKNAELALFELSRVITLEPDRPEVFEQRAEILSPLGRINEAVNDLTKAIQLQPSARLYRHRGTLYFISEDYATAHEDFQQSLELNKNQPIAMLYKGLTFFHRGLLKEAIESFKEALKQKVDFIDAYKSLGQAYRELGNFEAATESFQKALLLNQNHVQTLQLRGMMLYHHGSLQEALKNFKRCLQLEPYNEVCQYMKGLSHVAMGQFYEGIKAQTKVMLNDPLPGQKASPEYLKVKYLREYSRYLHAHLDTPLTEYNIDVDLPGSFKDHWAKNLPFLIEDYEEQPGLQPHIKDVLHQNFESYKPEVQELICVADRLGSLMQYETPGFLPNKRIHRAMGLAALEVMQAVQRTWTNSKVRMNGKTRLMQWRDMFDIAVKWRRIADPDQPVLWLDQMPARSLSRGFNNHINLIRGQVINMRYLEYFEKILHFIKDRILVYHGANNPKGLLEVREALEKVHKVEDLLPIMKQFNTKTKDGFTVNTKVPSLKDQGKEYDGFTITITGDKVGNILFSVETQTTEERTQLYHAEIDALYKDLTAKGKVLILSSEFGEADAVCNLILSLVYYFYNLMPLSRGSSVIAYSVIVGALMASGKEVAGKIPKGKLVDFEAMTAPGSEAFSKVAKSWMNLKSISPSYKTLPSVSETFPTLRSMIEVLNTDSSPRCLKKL
UniProt Q9P2K2: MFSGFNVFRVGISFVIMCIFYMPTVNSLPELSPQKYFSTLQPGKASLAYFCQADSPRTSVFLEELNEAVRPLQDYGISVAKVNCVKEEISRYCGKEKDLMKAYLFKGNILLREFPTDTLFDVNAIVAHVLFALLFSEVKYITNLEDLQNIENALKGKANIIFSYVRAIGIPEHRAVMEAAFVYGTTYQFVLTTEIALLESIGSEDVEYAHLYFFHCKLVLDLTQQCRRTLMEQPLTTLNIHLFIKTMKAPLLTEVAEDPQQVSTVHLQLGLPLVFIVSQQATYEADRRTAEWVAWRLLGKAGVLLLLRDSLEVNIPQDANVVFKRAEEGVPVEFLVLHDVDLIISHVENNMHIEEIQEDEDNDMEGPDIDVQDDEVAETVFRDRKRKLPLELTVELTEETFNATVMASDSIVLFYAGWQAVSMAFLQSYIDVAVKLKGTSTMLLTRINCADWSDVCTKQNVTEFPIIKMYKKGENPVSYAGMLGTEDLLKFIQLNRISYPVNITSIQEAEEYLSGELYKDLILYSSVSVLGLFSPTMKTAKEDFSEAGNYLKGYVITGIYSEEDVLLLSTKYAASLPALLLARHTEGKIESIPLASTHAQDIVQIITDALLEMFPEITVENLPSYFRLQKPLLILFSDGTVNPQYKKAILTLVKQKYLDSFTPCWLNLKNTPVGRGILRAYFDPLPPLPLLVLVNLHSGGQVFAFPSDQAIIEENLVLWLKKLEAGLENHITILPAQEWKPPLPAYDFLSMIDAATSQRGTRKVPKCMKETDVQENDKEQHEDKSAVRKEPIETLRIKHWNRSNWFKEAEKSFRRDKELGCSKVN

Assays:
Assay in all cases: log2 fold change, soluble protein after heating vs DMSO (PISA); higher = thermal stabilisation; K562 cells, 10 uM, 30 min; active = over 0.2 and 3.5 SD of the protein, either way, in both replicates (recomputed)
bafetinib = compound: Cc1ccc(NC(=O)c2ccc(CN3CC[C@H](N(C)C)C3)c(C(F)(F)F)c2)cc1Nc1nccc(-c2cncnc2)n1 [bafetinib]
Outline: (§1)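 Aliquots of K562 cells (2×10^6 cells/mL) treated with 10 μM compound for 30 min were heated for 3 min over 48°C-58°C. After pooling and extraction in PBS with 0.5% NP-40 at 4°C, soluble protein from a 21,000xg, 90 min spin was quantified by TMTpro 16plex LC-MS/MS with channel sums equalised. Thermal stability is expressed against control samples, from duplicates, as a log2 fold change.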

[1] = compound: Cc1cccc(CC(=O)N2CCc3c2ccc(-c2cn(C)c4ncnc(N)c24)c3F)n1
Outline: as §1

dasatinib = compound: Cc1nc(Nc2ncc(C(=O)Nc3c(C)cccc3Cl)s2)cc(N2CCN(CCO)CC2)n1 [dasatinib]
Outline: as §1

[2] = compound: Cn1cc(-c2ccc3c(c2)CCN3C(=O)Cc2cccc(C(F)(F)F)c2)c2c(N)ncnc21
Outline: as §1

tipifarnib = compound: Cn1cncc1[C@@](N)(c1ccc(Cl)cc1)c1ccc2c(c1)c(-c1cccc(Cl)c1)cc(=O)n2C [tipifarnib]
Outline: as §1

mubritinib = compound: FC(F)(F)c1ccc(/C=C/c2nc(COc3ccc(CCCCn4ccnn4)cc3)co2)cc1 [mubritinib]
Outline: as §1

[3] = compound: NC(=O)Nc1cc(-c2cccc(F)c2)sc1C(=O)N[C@H]1CCCNC1
Outline: as §1

[4] = compound: NC1(c2ccc(-c3nc4ccn5c(=O)[nH]nc5c4cc3-c3ccccc3)cc2)CCC1
Outline: as §1

[5] = compound: NCC(=O)Nc1ccc(-n2nc(C(F)(F)F)cc2-c2ccc3c(ccc4ccccc43)c2)cc1
Outline: as §1

entinostat = compound: Nc1ccccc1NC(=O)c1ccc(CNC(=O)OCc2cccnc2)cc1 [entinostat]
Outline: as §1

vorinostat = compound: O=C(CCCCCCC(=O)Nc1ccccc1)NO [vorinostat]
Outline: as §1

silmitasertib = compound: O=C(O)c1ccc2c(c1)nc(Nc1cccc(Cl)c1)c1ccncc12 [silmitasertib]
Outline: as §1

[6] = compound: O=C1NC(=O)C(c2cnc3ccccn23)=C1c1cn2c3c(cc(F)cc13)CN(C(=O)N1CCCCC1)CC2
Outline: as §1

nilotinib = compound: Cc1cn(-c2cc(NC(=O)c3ccc(C)c(Nc4nccc(-c5cccnc5)n4)c3)cc(C(F)(F)F)c2)cn1 [nilotinib]
Outline: as §1

[7] = compound: Cc1nc(Nc2n[nH]c3c2CN(C(=O)N[C@H](CN(C)C)c2ccccc2)C3(C)C)c2sccc2n1
Outline: as §1

[8] = compound: Cc1ncc(-c2ccnc(Nc3ccc(S(C)(=O)=O)cc3)n2)n1C(C)C
Outline: as §1

[9] = compound: NC(=O)c1cnc(N[C@@H]2CCCC[C@@H]2N)nc1Nc1cccc(-n2nccn2)c1
Outline: as §1

citarinostat = compound: O=C(CCCCCCNC(=O)c1cnc(N(c2ccccc2)c2ccccc2Cl)nc1)NO [citarinostat]
Outline: as §1

[10] = compound: c1cc(OCCN2CCCCC2)cc(-c2n[nH]c3ccc(-c4nnc[nH]4)cc23)c1
Outline: as §1

[11] = compound: Cn1cc(-c2ccc3nnc(C(F)(F)c4ccc5ncccc5c4)n3n2)cn1
Outline: as §1

Measured: log2 fold change

TWISTNB (UniProt Q3B726)
inactive: bafetinib 0.064 | [1] -0.075 | dasatinib -0.129 | [2] -0.031 | tipifarnib 0.042 | mubritinib 0.104 | [3] -0.19 | [4] -0.059 | [5] -0.176 | entinostat -0.003 | vorinostat 0.189 | silmitasertib -0.364 | [6] -0.107

U2AF1L5 (UniProt P0DN76)
inactive: bafetinib 0.047 | nilotinib 0.025 | [7] -0.669 | dasatinib -0.017 | [8] -0.108 | mubritinib 0.173 | [9] 0.047 | [4] 0.07 | [5] -0.295 | citarinostat -0.28 | silmitasertib -0.024 | [10] -0.146

TTPAL (UniProt Q9BTX7)
inactive: bafetinib -0.059 | [1] 0.001 | nilotinib 0.001 | [7] 0.011 | dasatinib 0.06 | [8] 0.041 | [2] 0.043 | [11] -0.051 | tipifarnib 0.002 | [3] -0.04 | [9] -0.067 | [5] 0.032 | entinostat 0.018 | vorinostat -0.034 | citarinostat 0.04 | [6] -0.004 | [10] -0.053

UBAP2L (UniProt F8W726)
inactive: bafetinib 0.02 | [1] -0.049 | nilotinib 0.151 | [7] 0.063 | [8] -0.109 | tipifarnib 0.245 | mubritinib -0.032 | [4] 0.083 | vorinostat -0.033 | citarinostat 0.095 | silmitasertib 0.004 | [10] -0.066

UBE2D1 (UniProt P51668)
active: [1] -0.345
inactive: bafetinib -0.065 | nilotinib -0.002 | [7] 0.046 | dasatinib -0.083 | [8] -0.074 | [2] 0.036 | [11] -0.075 | tipifarnib -0.089 | mubritinib 0.085 | [3] 0.119 | [9] 0.042 | [4] -0.143 | [5] -0.039 | entinostat -0.168 | vorinostat 0.164 | citarinostat 0.062 | silmitasertib 0.049 | [10] 0.011

TUBGCP3 (UniProt Q96CW5)
inactive: bafetinib 0.085 | [1] 0.106 | nilotinib 0.063 | [7] 0.174 | dasatinib -0.136 | [8] 0.034 | [2] -0.022 | [11] -0.021 | tipifarnib 0.01 | mubritinib -0.046 | [3] 0.03 | [9] -0.029 | [4] -0.042 | [5] 0.107 | entinostat 0.078 | vorinostat -0.079 | silmitasertib 0.158 | [6] -0.042

TTC12 isoform 2 (UniProt Q9H892)
inactive: bafetinib 0.299 | nilotinib -0.29 | [7] 0.215 | dasatinib 0.094 | [8] -0.071 | [2] -0.162 | [11] 0.148 | mubritinib 0.035 | [3] -0.087 | [4] -0.219 | entinostat -0.135 | citarinostat -0.233 | silmitasertib 0.097 | [6] 0.019 | [10] -0.16

TUBB4A (UniProt P04350)
inactive: bafetinib 0.033 | nilotinib 0.012 | [7] 0.026 | dasatinib -0.059 | [8] -0.066 | [2] 0.142 | [11] -0.038 | tipifarnib -0.167 | mubritinib 0.122 | [3] 0.136 | [9] -0.089 | [4] -0.108 | [5] 0.047 | entinostat 0.031 | citarinostat 0.191 | silmitasertib -0.005 | [6] -0.065 | [10] -0.104

UBE2G2 (UniProt P60604)
inactive: bafetinib -0.021 | [1] 0.096 | nilotinib -0.033 | [7] 0.044 | dasatinib -0.148 | [8] -0.015 | [2] 0.136 | [11] 0.222 | tipifarnib -0.033 | mubritinib 0.036 | [3] 0.032 | [9] 0.128 | [4] -0.086 | [5] -0.25 | entinostat 0.356 | vorinostat 0.102 | citarinostat -0.018 | silmitasertib -0.001 | [10] -0.098

TYW5 (UniProt A2RUC4)
inactive: [1] -0.067 | [11] -0.06 | tipifarnib 0.129 | mubritinib 0.087 | [9] 0.146 | [4] 0.065 | [5] 0.033 | vorinostat 0.141 | silmitasertib -0.166 | [6] -0.068

TSPAN4 (UniProt O14817)
inactive: bafetinib 0.064 | [11] -0.112 | mubritinib 0.325 | [4] 0.11 | citarinostat -0.069 | silmitasertib 0.043 | [10] -0.119

TSPAN31 (UniProt Q12999)
inactive: nilotinib 0.208 | [7] -0.367 | dasatinib 0.004 | [8] 0.43 | [2] -0.025 | tipifarnib 0.024 | mubritinib 0.132 | [3] 0.118 | [9] -0.003 | [4] -0.041 | entinostat -0.009 | citarinostat 0.164 | silmitasertib -0.076 | [6] 0.027 | [10] 0.189

TTC13 (UniProt Q8NBP0)
inactive: [1] -0.117 | dasatinib 0.194 | [2] -0.258 | [11] 0.112 | [3] -0.127 | [9] 0.169 | [5] -0.126 | entinostat 0.113 | vorinostat 0.182 | citarinostat 0.025 | [10] 0.043

TXNDC16 (UniProt Q9P2K2)
inactive: [1] 0.065 | nilotinib 0.007 | [7] 0.029 | dasatinib 0.024 | [8] -0.051 | [2] -0.094 | [11] 0.01 | tipifarnib -0.07 | mubritinib 0.063 | [3] -0.011 | [9] -0.074 | [4] -0.048 | [5] 0.021 | entinostat 0.098 | vorinostat -0.063 | citarinostat -0.084 | silmitasertib 0.08 | [6] 0.037 | [10] 0.02

Reprinted from the results shown (2 entries):
TTC13 (UniProt Q8NBP0)
inactive: [1] -0.117 | dasatinib 0.194 | [2] -0.258 | [11] 0.112 | [3] -0.127 | [9] 0.169 | [5] -0.126 | entinostat 0.113 | vorinostat 0.182 | citarinostat 0.025 | [10] 0.043

TXNDC16 (UniProt Q9P2K2)
inactive: [1] 0.065 | nilotinib 0.007 | [7] 0.029 | dasatinib 0.024 | [8] -0.051 | [2] -0.094 | [11] 0.01 | tipifarnib -0.07 | mubritinib 0.063 | [3] -0.011 | [9] -0.074 | [4] -0.048 | [5] 0.021 | entinostat 0.098 | vorinostat -0.063 | citarinostat -0.084 | silmitasertib 0.08 | [6] 0.037 | [10] 0.02
